This is an account of results in PubChem BioAssay AID2685 (National Center for Advancing Translational Sciences (NCATS), 2010).

The list shows a part of the results. Further columns of the screen follow, without active or inactive calls. Most of these compounds were active or inconclusive in the main read-out, so they are no random draw. Potencies come from curve fits of mixed quality, noted in brackets.

The assay in a line: qHTS Assay for Lipid Storage Modulators in Drosophila S3 Cells.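 For cell number change: cells counted by Cell Tracker Red CMTPX staining in the red channel.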 To be noted: BODIPY lipid droplet fluorescence, 18-24 h; for cell number change: measured here: cell count max response, cells fed with added oleic acid. The method in brief:
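Drosophila S3 cells loaded with oleic acid (400 uM, as added) and compounds at several concentrations; lipid droplets imaged by 488-nm laser-scanning cytometry, 500–530 nm intensity and object ratio to cell channel. Percent activity normalized to 20 uM Triacsin C.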
(In qHTS, concentration-response curves come from the screen itself.)

The mark [1] stands for this setting: measured here: lipid fluorescence (Fed channel) AC50, cells fed with added oleic acid.
The mark [2] stands for this setting: measured here: cell number channel AC50, cells fed with added oleic acid.

The AC50 is the concentration at which the activity in the assay is half-maximal. Low values mean greater potency, high ones weaker potency.

Turning to `COc1cc(C2C(C(=O)c3cc4ccccc4o3)=C(O)C(=O)N2c2cc(C)on2)cc(OC)c1OC` (stereo unspecified), the cell number change stood at 30.3%. On to `COc1ccc(C(=O)C2CCCN(Cc3cc(C)c(O)c(C)c3)C2)c(OC)c1` (stereo unspecified), for which the cell number change is -1.35%. In addition, the AC50 under setting [1] was 4.11 µM [falling, single point]. For `O=C(NC(=S)Nc1ccccc1F)C1CCCCC1`, the cell number change is 36.7%. The AC50 under setting [1] was 14.6 µM [rising, partial curve, poor fit]. As for `CN(C(=O)c1ccc(NC(=O)Cc2ccc(NC(=O)C3CCN(C(=O)C4CC4)CC3)cc2)cc1)C1CC1`, the cell number change was -2.39%. Under setting [1], the AC50 was 29.1 µM [falling, single point]. As to `Cc1cccc(N2CCN(C(=O)c3cnn4c(C(F)F)cc(-c5ccccc5)nc34)CC2)c1C`, the cell number change amounted to 20.3%. Moreover, the half-maximal activity concentration (AC50) under setting [1] was 11.6 µM [rising, partial curve]. As to `Cc1ccc(/C=N/NC(=O)CSCc2ccc(Cl)cc2)cc1`, the cell number change is -55.7%. For the same molecule, the AC50 under setting [2] is 16.4 µM [falling, single point]. Consider `CC1(C)Cc2nc3oc4c(N(CCO)Cc5ccccc5)ncnc4c3cc2CO1`, for which the cell number change is 24.9%. Also, the concentration at half-maximal activity (AC50) under setting [1] was 7.31 µM [rising, partial curve]. On to `CCOc1ccc(-n2c(-c3ccc(Br)cc3)c[n+]3c2CCCCC3)cc1`, for which the cell number change is -71.4%. Also, the AC50 under setting [2] is 0.146 µM [falling, full curve, poor fit]. Besides, the AC50 under setting [1] was 0.164 µM [falling, full curve, poor fit]. Regarding `CCC(C)NC(=O)c1cc(-c2ccc3c(c2)OCO3)on1` (stereo unspecified), the cell number change worked out at 27.7%. Besides, the AC50 under setting [1] is 4.11 µM [rising, full curve, poor fit]. With `Cc1ccc(NC(=O)c2ccc(S(=O)(=O)N3CCOCC3)cc2)cc1`, the cell number change came to 20.5%. Further, the AC50 under setting [1] is 10.3 µM [rising, partial curve].

Turning to `O=C(c1ccc(Cl)c(S(=O)(=O)N2CCCCCC2)c1)N1CCN(c2ccccn2)CC1`, the cell number change amounted to 29.1%. Also, the AC50 under setting [2] is 1.84 µM [rising, partial curve, poor fit]. Also, the AC50 under setting [1] is 3.66 µM [rising, partial curve]. Consider `c1ccc2[nH]c(CSc3nc4ccccc4o3)nc2c1`, for which the cell number change worked out at 80.2%. In addition, the AC50 under setting [2] is 29.1 µM [rising, single point]. In addition, the AC50 under setting [1] is 29.1 µM [rising, partial curve].

Consider `O=C(NCCC1=CCCCC1)C1CCN(S(=O)(=O)c2ccc(-n3cnnn3)cc2)CC1`, for which the cell number change is 1.48%. Moreover, the AC50 under setting [1] is 1.64 µM [rising, single point].

As for `S=C(Nc1ccc(Cl)cc1Cl)N1CCCC1`, the cell number change is -12%. The AC50 under setting [1] is 0.13 µM [falling, full curve, poor fit].

`CC1=C(C(=O)NC2CCCc3c2cnn3-c2ccc(F)cc2F)OCCO1` (stereo unspecified): the AC50 was 3.26 µM [falling, single point] under setting [2] and 0.231 µM [falling, full curve] under setting [1]. With `CCOC(=O)N1CCC(O)(c2cc(C)c(C)cc2C)CC1`, the AC50 under setting [1] is 6.51 µM [falling, single point]. Regarding `c1ccc2[nH]c(CSc3nc4ccccc4s3)nc2c1`, the cell number change was -30%. Moreover, the AC50 under setting [2] is 29.1 µM [falling, single point]. For the same molecule, under setting [1], the AC50 is 0.82 µM [rising, partial curve]. For the molecule `NC1=NC(=O)C(Cc2ccc(F)cc2)S1` (stereo unspecified), the cell number change is 13%. Besides, the AC50 under setting [1] was 20.6 µM [rising, single point]. In the case of `Cc1cc(=O)oc2cc(NC(=O)c3cc(F)ccc3F)ccc12`, the cell number change was -13.7%. Also, the AC50 under setting [1] is 29.1 µM [rising, single point]. For `COC(=O)c1[nH]c2ccccc2c1NC(=O)CN1CCN(c2cccc(OC)c2)C(C)C1` (stereo unspecified), the cell number change is -18.7%. Further, under setting [1], the half-maximal activity concentration (AC50) is 0.58 µM [rising, full curve]. Consider `CN(C)C(=O)c1nc2ccc(Cl)cn2c1CNCc1cccc(OC(F)(F)F)c1`, for which the cell number change came out at 18.8%. Besides, under setting [2], the AC50 is 2.59 µM [rising, single point]. Besides, under setting [1], the AC50 is 29.1 µM [rising, partial curve, poor fit]. Consider `Cc1c(CC(=O)NCCCCCC(=O)O)c(=O)oc2cc3c(cc12)CCC(C)(C)O3`, for which the cell number change stood at 13.5%. For the same molecule, the AC50 under setting [1] was 0.58 µM [rising, single point]. As for `O=C(Nc1ccc(NC(=O)c2cc([N+](=O)[O-])ccc2N2CCOCC2)cc1)c1cccs1`, the cell number change turned out to be 20.8%. For the same molecule, the AC50 under setting [2] was 0.82 µM [rising, full curve]. The AC50 under setting [1] was 1.3 µM [rising, full curve]. Turning to `O=C(CCNC(=O)C1CCN(S(=O)(=O)c2ccc(F)cc2)CC1)NCc1cccnc1`, the cell number change came to 18.5%. In addition, under setting [1], the AC50 was 0.13 µM [rising, full curve, poor fit]. `CN(C)C(CNC(=O)/C=C/c1cccc(Cl)c1)c1ccccc1` (stereo unspecified): the cell number change was determined as 8.7%. Besides, under setting [1], the AC50 is 29.1 µM [falling, single point]. Take `COC(=O)c1cc(OC(=O)CCc2ccc(OC)c(OC)c2)cc(C(=O)OC)c1`: the cell number change is 31.9%. The AC50 under setting [2] was 0.00517 µM [rising, full curve, poor fit]. For the molecule `Cc1ccc(S(=O)(=O)N2CCCC(C(=O)NCc3ccc4c(c3)OCO4)C2)cc1` (stereo unspecified), the cell number change was 5.13%. In addition, under setting [2], the AC50 is 1.03 µM [rising, partial curve, poor fit]. For the same molecule, the AC50 under setting [1] was 0.461 µM [falling, partial curve]. With `O=C(Nc1ccccc1N1CCN(C(=O)c2ccccc2)CC1)c1ccc(Br)o1`, the cell number change was -15.7%. For the same molecule, the AC50 under setting [1] is 3.66 µM [falling, full curve, poor fit].

As to `CCCCCN1C=CC(=C2C(=O)c3ccccc3C2=O)C=C1`, the cell number change was 8.88%. The AC50 under setting [1] is 6.51 µM [falling, single point]. `Cc1cccc(S(=O)(=O)NNC(=O)c2cc(-c3ccc(F)cc3)nc3ccccc23)c1`: the cell number change came to 13.5%. Besides, the AC50 under setting [2] is 0.731 µM [falling, full curve]. Under setting [1], the AC50 was 6.51 µM [falling, single point]. Turning to `COc1ccc(NC(=O)c2ccc3[nH]c(C)c(C)c3c2)c(OC)c1`, the cell number change was -2.84%. On the same count and under the same terms, for `CC1(C)CC(=O)C2=C(C1)NCN(Cc1ccccc1)C2` the value was 1.35%. In the case of `N#Cc1ncc(-c2ccc3c(c2)OCCOCCOCCOCCO3)nc1C#N`, the cell number change is -14.3%. Under setting [1], the AC50 is 0.291 µM [falling, partial curve, poor fit]. Regarding `O=C(NCCC1CCCCN1S(=O)(=O)c1cccs1)C(=O)Nc1ccccc1F` (stereo unspecified), the cell number change was -4.58%. Also, the AC50 under setting [1] is 0.0291 µM [rising, full curve, poor fit]. In the case of `COC(=O)c1cnn(-c2cc(Oc3cccc(C)c3)ncn2)c1N`, the AC50 reads like this: under setting [2], 2.91 µM [rising, single point]; under setting [1], 5.17 µM [rising, partial curve]. `Cn1c(=O)c2c(nc(OCC3COC(C)(C)O3)n2Cc2ccccc2F)n(C)c1=O` (stereo unspecified): the cell number change was -17.4%. Besides, under setting [1], the AC50 was 0.0326 µM [falling, partial curve, poor fit]. With `O=C(Cc1ccccc1)N/N=C/c1ccccc1Cl`, the AC50 under setting [1] was 6.51 µM [rising, single point]. Same read-out and setting: for `Fc1ccc(NC(=S)NCCc2ccc(Cl)cc2)cc1` the value was 29.1 µM [rising, single point]. As for `COc1ccc(S(=O)(=O)NCCOc2ccc(Cl)cc2)cc1`, the cell number change is -1.3%. `COC(=O)C1=C(C)N(Cc2ccccc2)C(=NCc2cccc(Cl)c2)N[C@H]1c1cccc(F)c1`: under setting [1], the AC50 is 18.4 µM [falling, single point].

Consider `COc1cccc(N2C(=NC(=O)CCC3CCCC3)SC3CS(=O)(=O)CC32)c1` (stereo unspecified), for which the AC50 under setting [1] was 16.4 µM [falling, single point]. In the case of `CCn1c(-c2cccc(Br)c2)n[nH]c1=S`, the AC50 is 0.366 µM [rising, full curve, poor fit] under setting [2] and 0.116 µM [rising, full curve, poor fit] under setting [1]. As to `CC(C(=O)C12CC3CC(CC(C3)C1)C2)N1CCOCC1` (stereo unspecified), the cell number change is -4.11%. As for `Cc1noc(N)c1C(=O)Nc1ccc(F)c(Cl)c1`, the cell number change is -23.2%. Further, the AC50 under setting [1] is 16.4 µM [falling, single point]. `COc1ccccc1N1CCN(C(=O)C(=O)c2cn(CC(=O)N3CCOCC3)c3ccccc23)CC1`: the cell number change came out at 12.4%. Further, the AC50 under setting [1] was 3.66 µM [rising, full curve]. For `O=C(c1cccc(C(F)(F)F)c1)N(c1ccccn1)C1CCCCC1`, the cell number change is 26.7%. The AC50 under setting [2] was 0.00461 µM [rising, full curve, poor fit]. As for `CC1(c2ccc3ccccc3c2)NC(=O)N(CC(=O)N2CCN(S(=O)(=O)c3ccccc3F)CC2)C1=O` (stereo unspecified), the AC50 under setting [1] was 0.00461 µM [rising, full curve, poor fit].

`Cc1cc(/C=C(/C#N)C(=O)O)c(C)n1-c1cccc2ccccc12`: the cell number change is -17.6%. Besides, under setting [1], the AC50 is 3.66 µM [falling, full curve, poor fit]. As to `COc1ccc(CN2CCC(=O)N([C@H](CO)CC(C)C)CC2)cc1OC`, the cell number change came to 14.2%. Further, the AC50 under setting [1] was 29.1 µM [rising, single point]. For the molecule `Cc1ccc(-c2nc(CC(=O)Nc3cccc(S(=O)(=O)NC4=NCCC4)c3)cs2)cc1`, the cell number change is -15.6%. Also, under setting [1], the AC50 is 6.51 µM [falling, single point]. In the case of `COc1cc2nc(NC(=O)c3ccc(Cl)cc3)[nH]c(=O)c2cc1OC`, the cell number change is -11.1%. Also, under setting [2], the AC50 is 0.0058 µM [falling, full curve, poor fit]. For the same molecule, the AC50 under setting [1] is 0.461 µM [rising, single point]. For the molecule `CSCCC(NC(=O)c1ccccc1Cl)C(=O)N1CCCCCCC1` (stereo unspecified), the cell number change was determined as 2.43%.

On to `O=C(NC1CCCCC1)C(c1ccc(F)cc1)N(Cc1ccco1)C(=O)c1ccccn1` (stereo unspecified), for which the cell number change is -45.4%. Moreover, under setting [2], the AC50 is 5.17 µM [falling, full curve]. The AC50 under setting [1] was 0.731 µM [falling, full curve]. Turning to `Cc1ccc(OCCC(=O)OCC(=O)NC(=O)NC2CCCCC2)cc1`, the cell number change is -56.1%. Further, the AC50 under setting [2] was 13 µM [falling, partial curve]. As for `Cc1cc(NC(=O)COC(=O)CCNS(=O)(=O)c2c(Cl)cccc2Cl)no1`, the cell number change is 44%. Under setting [2], the AC50 is 0.82 µM [rising, full curve, poor fit]. Besides, under setting [1], the AC50 was 1.64 µM [rising, partial curve].

As to `Cc1[nH]c2ccccc2c1C(=O)C(=O)NCC1CCCO1` (stereo unspecified), the cell number change was determined as 9.82%. Moreover, the AC50 under setting [1] is 0.116 µM [falling, full curve, poor fit].
